Hit rate of the full screen: of about 59,000 compounds, about 6,500 (11%) were called active. Inconclusive results, whose numbers are uncertain, are shown with a selection of clear calls. No stated cut-off is given here; in the data, active means max dye-equivalent concentration above about 10 nM; inconclusive means mostly about 1.1 nM to 9.6 nM; inactive means weaker than that.
experiment: qHTS Assay for Spectroscopic Profiling in A350 Spectral Region; conditions: Compound autofluorescence, 340/450 nm, Alexa 350 dye-equivalents; hits give high values

Compound	max dye-equivalent concentration
Cc1sc2ncnc(NCCCn3ccnc3)c2c1C	inconclusive: 1.5 nM
N#CCCn1c(=O)c(CCc2ccccc2)nc2cnc(Nc3ccccc3)nc21	inconclusive: 5.7 nM
O=S(=O)(O)C1CCNCC1	active: 46 nM
O=c1c(-c2cccs2)nc2cnc(Oc3cccc(Cl)c3)nc2n1C1CC1	active: 35 nM
O=c1c(-c2cc(F)cc(F)c2)nc2cnc(N3CCOCC3)nc2n1Cc1cccs1	inconclusive: 1.3 nM
CCN(CC)c1ccc2c(c1)CCCN2	inconclusive: 1.1 nM
CCCSc1nnc(NC(=O)Nc2ccc(F)cc2)s1	inconclusive: 5.9 nM
Cc1ccc(N(CC2=NCCN2)c2cccc(O)c2)cc1	inconclusive: 2.4 nM
CC1Cc2ccccc2N1S(=O)(=O)c1cccc(C(=O)NC2CC2)c1 (centres undefined)	inconclusive: 1.5 nM
c1ccc(-c2cccc(-c3ccccn3)n2)nc1	inactive
Cc1cccn2cc(CNC(=O)CC3CCCC3)nc12	inactive
O=C(c1cc2cc3ccc(Cl)cc3nc2o1)N1CCN(Cc2ccc3c(c2)OCO3)CC1	inconclusive: 1.1 nM
O=C(c1cc2c(=O)oc3ccccc3c2s1)N1CCN(c2ncccn2)CC1	inconclusive: 2 nM
Cn1c(=O)c2nnn(/N=C(\c3ccccc3)C3CC3)c2n(C)c1=O	inconclusive: 5.4 nM
CCCn1c(=N)n(CCOc2ccc(OC)cc2)c2ccccc21	inconclusive: 1.9 nM
CC(=O)Nc1ccc(-c2cc3ccccc3o2)cc1	inactive
O=C(N1CCCC1)N1CCN(c2ncnc3c(-c4ccc(Cl)cc4)nsc23)CC1	inconclusive: 9 nM
Cc1ccc2nc(C(O)C(O)c3nc4ccc(C)cc4[nH]3)[nH]c2c1 (centres undefined)	inconclusive: 1.3 nM
Cc1nn(CC(O)Cn2c3c(c4ccccc42)CCN(C)C3=O)c(C)c1Br (centres undefined)	active: 32 nM
CN1CCN(c2nc(-c3ccccc3)c3cc(Cl)ccc3n2)CC1	active: 43 nM
Cc1ccc2nc(C3CCN(CC(=O)Nc4ccc5c(c4)OCCO5)CC3)[nH]c2c1	inconclusive: 1.3 nM
O=C(CSc1nc2ccccc2c(=O)n1C1CC1)NCc1ccccc1	inconclusive: 5 nM
CCOC(=O)c1c(C)n(C)c2ccc(OC)c(NC(=O)CN3CCN(Cc4ccccc4)CC3)c12	inactive

As a short view, part of the list above:
Compound	max dye-equivalent concentration
CC(=O)Nc1ccc(-c2cc3ccccc3o2)cc1	inactive
O=C(N1CCCC1)N1CCN(c2ncnc3c(-c4ccc(Cl)cc4)nsc23)CC1	inconclusive: 9 nM
Cc1ccc2nc(C(O)C(O)c3nc4ccc(C)cc4[nH]3)[nH]c2c1 (centres undefined)	inconclusive: 1.3 nM
Cc1nn(CC(O)Cn2c3c(c4ccccc42)CCN(C)C3=O)c(C)c1Br (centres undefined)	active: 32 nM

3 compounds from above, arranged by molar mass, high to low.
Compound	max dye-equivalent concentration
Cc1cccn2cc(CNC(=O)CC3CCCC3)nc12	inactive
CC(=O)Nc1ccc(-c2cc3ccccc3o2)cc1	inactive
O=S(=O)(O)C1CCNCC1	active: 46 nM

Additional compounds:

Compound	max dye-equivalent concentration
O=C(CCNC(=O)c1ccc(Br)o1)NC1CCCC1	inconclusive: 1.1 nM
CCOC(=O)c1c2n(c3ccc(O)cc13)CCC2	inactive
COc1ccc(-c2nn(C)c(=O)c3ccccc23)cc1NC(=O)Cn1nc(C)c2ccccc2c1=O	inactive
c1nc(N2CCNCC2)c2cc(-c3ccoc3)ccc2n1	inconclusive: 3.5 nM
COc1ccc(C2CC(c3ccccc3)n3nc(NC(=O)c4cccs4)nc3N2)cc1 (centres undefined)	inconclusive: 3.6 nM
CCOc1cccc2cc(C(=O)Nc3cc(C)on3)c(=O)oc12	inconclusive: 3.4 nM
N#Cc1c(-c2ccccc2)nc(SCc2nc(N)nc(N3CCCCC3)n2)[nH]c1=O	inconclusive: 1.5 nM
Cc1ccc(-c2cc(C(=O)NCCN3CCOCC3)no2)cc1	inconclusive: 7.6 nM
COc1ccc(Cl)cc1-c1nc(-c2ccncc2)no1	inconclusive: 1.2 nM
CC(=O)Nc1ccc(S(=O)(=O)Nc2nc3ccccc3nc2Sc2nncn2C)cc1	active: 53 nM
Cc1cc(N2CCN(C3CCCC3)CC2)n2c(nc3ccccc32)c1C#N	active: 110 nM
Brc1c(CSc2nc3ccccc3o2)nc2ncccn12	active: 240 nM
Fc1cccc(Cl)c1CSc1nnc(COc2cccc3cccnc23)o1	inconclusive: 2.1 nM
CCCc1cc(-n2ccnc2)n2c(nc3ccccc32)c1C#N	inactive
COc1cc(C2NC(=O)NC(C)=C2C(=O)Nc2cccc(C)c2C)cc(OC)c1OC (centres undefined)	inconclusive: 2.6 nM
CCOC(=O)C1CCN(C(=O)C2CCCCC2)CC1	inactive
CCc1nnc(NC(=O)c2nc3nccc(C)n3n2)s1	inconclusive: 1.7 nM
O=C(O)CCCC(=O)Nc1ccc(C(=O)N2CCCCC2)c(Cl)c1	inactive
COc1ccc2nc(C)cc(N3CC(C)OC(C)C3)c2c1 (centres undefined)	inconclusive: 1.3 nM
Cn1c(N)c(C(=O)COC(=O)CCC(=O)c2cccs2)c(=O)n(C)c1=O	inconclusive: 3.4 nM
Cc1nnc(SCC(=O)NCc2ccc3c(c2)OCO3)[nH]c1=O	inactive
c1cc(-c2nc3ccccc3o2)nc(-c2nc3ccccc3o2)c1	inactive
COc1ccc(C2NC(c3ccc(OC)c(OC)c3OC)C(C)C(=O)C2C)c(OC)c1OC (centres undefined)	inconclusive: 1.5 nM

Compound	max dye-equivalent concentration
CCOc1ccccc1N1CCN(c2nc3ccccc3nc2C(C#N)C(=O)OC)CC1 (centres undefined)	inconclusive: 5.7 nM
O=C(Nc1ccccc1)c1cccnc1Nc1ccccc1	inactive
CCOC(=O)N1CC=C2C(C#N)=C(N)C(C#N)(C#N)[C@H](c3ccc(OCC)c(OCC)c3)[C@H]2C1	inconclusive: 4.5 nM
Cc1nn(CC(=O)Nc2ccc3c(c2)nc(CN2CCCC2)n3C)c(=O)c2ccccc12	inconclusive: 1.1 nM
OC[C@@H]1O[C@@H](n2cnc3c(N[C@@H]4C[C@@H]5CC[C@H]4C5)ncnc32)[C@@H](O)[C@H]1O	inactive
O=C(Nc1ccc(Br)cc1Cl)Nn1cnnc1	inconclusive: 2.1 nM
Cc1oc2cc3oc(=O)c4c(c3cc2c1C)CCC4	active: 28 nM
CCOc1cccc(C2C(C#N)=C(N)Oc3cc(C)n(Cc4ccccn4)c(=O)c32)c1OCC (centres undefined)	inconclusive: 6.6 nM
Cc1noc(C)c1CSc1ncnc2ccccc12	inconclusive: 1.4 nM
CCCCCn1c(SCC#N)nc2cc(C(=O)NCC3CCCO3)ccc2c1=O (centres undefined)	inconclusive: 1.9 nM
CCOC(=O)Cn1nnnc1C(CC)N(Cc1cccs1)Cc1cc2cc(C)ccc2[nH]c1=O (centres undefined)	inconclusive: 4.4 nM
O=C(O)CC(C(=O)NCc1ccccc1)C1CCCO1 (centres undefined)	inconclusive: 2.6 nM
CN1CCc2c(sc3c2C(=O)NC(/C=C/c2ccco2)N3)C1 (centres undefined)	active: 37 nM
Cc1[nH]c(=O)[nH]c(=O)c1CSc1nnc([C@H](CC(C)C)NC(=O)OC(C)(C)C)o1	inactive
CS(=O)(=O)N1CCC(C(=O)N2CCc3ccccc3C2)CC1	inconclusive: 7.9 nM
Cc1nnc(SCCn2c(N3CCC(C)CC3)nc3c2c(=O)n(C)c(=O)n3C)s1	inconclusive: 1.1 nM
CCN1C(=O)CSc2ccc(C(=O)NCCCN3CCOCC3)cc21	inconclusive: 1.1 nM
Cc1nnc(SCC(=O)N2c3ccccc3Sc3ccccc32)n1N	inactive
CCOC(=O)c1c(C)[nH]c(C(=O)COC(=O)C2CC(=O)N(Cc3ccccc3)C2)c1C (centres undefined)	inconclusive: 1.1 nM
COc1ccc(-n2c(=O)c(-c3ccc(Cl)cc3)nc3cnc(N4CCOCC4)nc32)cc1	active: 16 nM
COC(=O)C1C(=O)C2=C(CC1C)NC(C)=C(C(=O)OC(C)C)C2c1ccc(OC)c(O)c1 (centres undefined)	inconclusive: 9.7 nM
O=C(CSC1=NCCN1)c1ccccc1	inconclusive: 6.2 nM
CC(=O)Nc1nc2c(c3c1c(=O)oc1ccccc13)CCCCC2	active: 22 nM

Compound	max dye-equivalent concentration
CCc1ccc(CCC(=O)O)nc1	active: 260 nM
CCOC(=O)Nc1ccc2c(c1)N(C(=O)CCN1CCN3CCCC3C1)c1ccccc1CC2 (centres undefined)	inconclusive: 1.1 nM
CCCCCC(=O)N1CC2(CC)CN(C(=O)CCCCC)CC(CC)(C1)C2=O	inactive
NC(=O)C1CCCN(C(=O)Nc2cccc3ccccc23)C1 (centres undefined)	active: 35 nM
COC(=O)c1ccc(-c2sc3nc(N4CCOCC4)c4c(c3c2N)CC(C)(C)OC4)o1	inconclusive: 1.6 nM
COc1cccc(NC(=O)CSc2nc3c(c(-c4ccco4)c2C#N)CCCC3)c1	active: 15 nM
O=C(COc1ccccc1Cl)NC(=O)NC1CCCC1	inconclusive: 1.7 nM
Cc1ccc2c(n1)sc1c(N)ncnc12	inconclusive: 3.5 nM
O=C(c1noc2c1CCc1ccccc1-2)N1CCc2ccccc2C1	inactive
CCOc1cc(CNc2ccc3[nH]c(=O)[nH]c3c2)ccc1OCC(=O)NC(C)(C)C	inconclusive: 3.3 nM
Cc1c(CCC(=O)O)c(=O)oc2cc3occ(-c4ccc(F)cc4)c3cc12	active: 32 nM
CNS(=O)(=O)c1cccc(C(=O)OCC(=O)Nc2ccccc2OC(F)F)c1	inconclusive: 3 nM
CC1CCN(CC[C@@H]2CCCN2S(=O)(=O)c2cccc(O)c2)CC1	inactive
CC(=O)OCC(=O)[C@H]1CC[C@H]2[C@@H]3CC=C4C[C@@H](O)CC[C@]4(C)[C@H]3CC[C@]12C	inactive
Cn1c(SCC(=O)c2ccccc2)nnc1-c1cnccn1	inactive
Cc1ccc(-n2nc3c(c2NC(=O)c2c(-c4ccccc4Cl)noc2C)CS(=O)(=O)C3)c(C)c1	inconclusive: 1.1 nM
CCOC(=O)C1CCN(C(=O)c2cc(S(=O)(=O)N3CCOCC3)c(Cl)cc2Cl)CC1	inconclusive: 1.1 nM
COc1ccc(C)cc1NC(=O)CSc1nnc(-c2ccccn2)n1Cc1ccco1	inactive
COc1cc(C(=O)Nc2ccc3c(c2)OCO3)ccc1-n1cnnn1	inconclusive: 1.6 nM
Cc1cc(Nc2ccccc2)nc(-c2ccccc2O)n1	inconclusive: 3.3 nM

Reference: PubChem BioAssay AID590 (National Center for Advancing Translational Sciences (NCATS), 2007)
